Reference: article PMC13546301
No constants are given. Whether binding was seen depends on the method and setting. Some entries that bind do so weakly or less than the wild type.

By UniProt entry, the sequences of proteins in these tests, tags left out. Residues count along the entry.
UniProt Q9CS84, residues 31-1514: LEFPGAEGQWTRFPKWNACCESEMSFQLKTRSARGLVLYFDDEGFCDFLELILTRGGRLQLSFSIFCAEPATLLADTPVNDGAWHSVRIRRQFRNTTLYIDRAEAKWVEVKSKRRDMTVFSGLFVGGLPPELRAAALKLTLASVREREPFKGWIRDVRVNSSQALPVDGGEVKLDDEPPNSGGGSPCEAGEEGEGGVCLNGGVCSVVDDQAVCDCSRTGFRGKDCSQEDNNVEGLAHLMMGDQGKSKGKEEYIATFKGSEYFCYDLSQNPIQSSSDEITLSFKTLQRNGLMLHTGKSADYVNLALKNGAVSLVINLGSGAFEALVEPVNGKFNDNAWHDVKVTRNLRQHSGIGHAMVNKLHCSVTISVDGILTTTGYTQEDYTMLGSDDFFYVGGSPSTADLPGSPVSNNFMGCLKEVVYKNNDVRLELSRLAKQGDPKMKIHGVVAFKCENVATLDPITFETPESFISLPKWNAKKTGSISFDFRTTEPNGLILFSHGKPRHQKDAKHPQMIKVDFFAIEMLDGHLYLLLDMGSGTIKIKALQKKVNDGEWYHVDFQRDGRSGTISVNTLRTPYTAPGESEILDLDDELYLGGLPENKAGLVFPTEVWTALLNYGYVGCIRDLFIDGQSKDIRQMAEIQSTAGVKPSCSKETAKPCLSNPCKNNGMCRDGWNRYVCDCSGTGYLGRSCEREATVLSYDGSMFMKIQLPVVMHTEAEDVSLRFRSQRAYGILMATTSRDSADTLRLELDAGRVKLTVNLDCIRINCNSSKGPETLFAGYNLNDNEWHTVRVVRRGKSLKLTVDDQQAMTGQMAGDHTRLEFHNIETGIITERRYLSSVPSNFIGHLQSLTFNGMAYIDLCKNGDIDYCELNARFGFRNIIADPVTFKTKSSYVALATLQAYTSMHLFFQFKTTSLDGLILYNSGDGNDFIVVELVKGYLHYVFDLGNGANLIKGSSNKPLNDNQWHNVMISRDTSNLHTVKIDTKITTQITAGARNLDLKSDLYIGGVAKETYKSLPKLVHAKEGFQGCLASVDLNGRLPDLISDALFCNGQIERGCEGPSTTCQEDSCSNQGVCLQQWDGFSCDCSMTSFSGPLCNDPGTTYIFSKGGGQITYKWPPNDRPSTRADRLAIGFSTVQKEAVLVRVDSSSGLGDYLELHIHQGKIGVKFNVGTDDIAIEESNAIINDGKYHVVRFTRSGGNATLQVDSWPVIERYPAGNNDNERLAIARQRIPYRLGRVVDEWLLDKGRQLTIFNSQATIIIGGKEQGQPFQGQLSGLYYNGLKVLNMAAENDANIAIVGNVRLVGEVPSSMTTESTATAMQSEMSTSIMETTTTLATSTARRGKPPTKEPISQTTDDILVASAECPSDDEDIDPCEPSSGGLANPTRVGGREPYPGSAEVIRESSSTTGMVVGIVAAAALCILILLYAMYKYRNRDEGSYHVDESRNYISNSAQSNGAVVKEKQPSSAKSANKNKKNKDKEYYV
UniProt Q64487, residues 21-1912: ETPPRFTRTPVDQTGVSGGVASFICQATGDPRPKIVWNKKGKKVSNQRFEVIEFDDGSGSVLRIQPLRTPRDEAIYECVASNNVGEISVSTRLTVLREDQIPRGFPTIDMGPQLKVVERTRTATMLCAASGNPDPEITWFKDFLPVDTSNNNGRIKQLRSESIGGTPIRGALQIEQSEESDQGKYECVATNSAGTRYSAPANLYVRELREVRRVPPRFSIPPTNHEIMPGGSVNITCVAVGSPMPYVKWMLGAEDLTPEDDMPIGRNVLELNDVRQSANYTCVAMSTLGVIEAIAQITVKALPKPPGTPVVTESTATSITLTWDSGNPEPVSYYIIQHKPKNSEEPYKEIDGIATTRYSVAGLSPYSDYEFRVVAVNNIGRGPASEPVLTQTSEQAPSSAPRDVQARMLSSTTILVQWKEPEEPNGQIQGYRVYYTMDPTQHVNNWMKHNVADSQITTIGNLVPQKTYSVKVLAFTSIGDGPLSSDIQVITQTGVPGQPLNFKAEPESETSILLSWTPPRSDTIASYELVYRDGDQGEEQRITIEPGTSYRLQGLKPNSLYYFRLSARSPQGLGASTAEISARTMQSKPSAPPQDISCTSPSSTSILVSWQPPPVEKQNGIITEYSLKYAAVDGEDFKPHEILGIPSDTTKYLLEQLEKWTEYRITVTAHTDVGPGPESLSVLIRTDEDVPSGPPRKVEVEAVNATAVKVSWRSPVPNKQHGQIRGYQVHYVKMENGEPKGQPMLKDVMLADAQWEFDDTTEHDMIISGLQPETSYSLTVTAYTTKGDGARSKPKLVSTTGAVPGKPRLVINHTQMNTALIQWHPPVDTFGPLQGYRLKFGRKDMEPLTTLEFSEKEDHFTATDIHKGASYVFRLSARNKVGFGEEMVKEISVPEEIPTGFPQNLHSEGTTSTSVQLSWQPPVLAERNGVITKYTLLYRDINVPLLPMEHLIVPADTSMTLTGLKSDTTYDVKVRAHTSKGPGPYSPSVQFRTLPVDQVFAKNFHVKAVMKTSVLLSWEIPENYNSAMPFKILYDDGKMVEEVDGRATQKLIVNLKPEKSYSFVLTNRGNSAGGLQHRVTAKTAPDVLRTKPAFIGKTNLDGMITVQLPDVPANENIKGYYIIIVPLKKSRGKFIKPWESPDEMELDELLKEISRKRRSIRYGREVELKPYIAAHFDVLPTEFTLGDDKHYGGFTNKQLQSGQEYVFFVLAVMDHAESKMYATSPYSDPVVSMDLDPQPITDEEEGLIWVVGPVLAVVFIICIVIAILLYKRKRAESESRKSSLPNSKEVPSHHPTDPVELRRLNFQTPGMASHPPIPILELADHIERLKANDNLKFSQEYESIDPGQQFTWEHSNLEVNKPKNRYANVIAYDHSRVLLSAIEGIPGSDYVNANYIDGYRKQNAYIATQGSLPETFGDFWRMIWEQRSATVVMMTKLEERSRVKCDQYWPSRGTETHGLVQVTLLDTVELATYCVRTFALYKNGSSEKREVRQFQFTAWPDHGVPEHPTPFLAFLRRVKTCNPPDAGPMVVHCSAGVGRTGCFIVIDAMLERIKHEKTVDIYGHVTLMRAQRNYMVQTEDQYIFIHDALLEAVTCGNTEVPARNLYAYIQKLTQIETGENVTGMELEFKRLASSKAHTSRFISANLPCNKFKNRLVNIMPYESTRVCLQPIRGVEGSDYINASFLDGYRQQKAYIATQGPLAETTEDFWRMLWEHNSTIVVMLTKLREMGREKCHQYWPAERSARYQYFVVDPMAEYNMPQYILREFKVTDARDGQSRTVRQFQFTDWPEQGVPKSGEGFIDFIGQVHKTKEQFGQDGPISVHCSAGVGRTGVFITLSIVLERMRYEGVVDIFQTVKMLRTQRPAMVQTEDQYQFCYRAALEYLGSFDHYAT
UniProt B0V2N1, residues 30-1907: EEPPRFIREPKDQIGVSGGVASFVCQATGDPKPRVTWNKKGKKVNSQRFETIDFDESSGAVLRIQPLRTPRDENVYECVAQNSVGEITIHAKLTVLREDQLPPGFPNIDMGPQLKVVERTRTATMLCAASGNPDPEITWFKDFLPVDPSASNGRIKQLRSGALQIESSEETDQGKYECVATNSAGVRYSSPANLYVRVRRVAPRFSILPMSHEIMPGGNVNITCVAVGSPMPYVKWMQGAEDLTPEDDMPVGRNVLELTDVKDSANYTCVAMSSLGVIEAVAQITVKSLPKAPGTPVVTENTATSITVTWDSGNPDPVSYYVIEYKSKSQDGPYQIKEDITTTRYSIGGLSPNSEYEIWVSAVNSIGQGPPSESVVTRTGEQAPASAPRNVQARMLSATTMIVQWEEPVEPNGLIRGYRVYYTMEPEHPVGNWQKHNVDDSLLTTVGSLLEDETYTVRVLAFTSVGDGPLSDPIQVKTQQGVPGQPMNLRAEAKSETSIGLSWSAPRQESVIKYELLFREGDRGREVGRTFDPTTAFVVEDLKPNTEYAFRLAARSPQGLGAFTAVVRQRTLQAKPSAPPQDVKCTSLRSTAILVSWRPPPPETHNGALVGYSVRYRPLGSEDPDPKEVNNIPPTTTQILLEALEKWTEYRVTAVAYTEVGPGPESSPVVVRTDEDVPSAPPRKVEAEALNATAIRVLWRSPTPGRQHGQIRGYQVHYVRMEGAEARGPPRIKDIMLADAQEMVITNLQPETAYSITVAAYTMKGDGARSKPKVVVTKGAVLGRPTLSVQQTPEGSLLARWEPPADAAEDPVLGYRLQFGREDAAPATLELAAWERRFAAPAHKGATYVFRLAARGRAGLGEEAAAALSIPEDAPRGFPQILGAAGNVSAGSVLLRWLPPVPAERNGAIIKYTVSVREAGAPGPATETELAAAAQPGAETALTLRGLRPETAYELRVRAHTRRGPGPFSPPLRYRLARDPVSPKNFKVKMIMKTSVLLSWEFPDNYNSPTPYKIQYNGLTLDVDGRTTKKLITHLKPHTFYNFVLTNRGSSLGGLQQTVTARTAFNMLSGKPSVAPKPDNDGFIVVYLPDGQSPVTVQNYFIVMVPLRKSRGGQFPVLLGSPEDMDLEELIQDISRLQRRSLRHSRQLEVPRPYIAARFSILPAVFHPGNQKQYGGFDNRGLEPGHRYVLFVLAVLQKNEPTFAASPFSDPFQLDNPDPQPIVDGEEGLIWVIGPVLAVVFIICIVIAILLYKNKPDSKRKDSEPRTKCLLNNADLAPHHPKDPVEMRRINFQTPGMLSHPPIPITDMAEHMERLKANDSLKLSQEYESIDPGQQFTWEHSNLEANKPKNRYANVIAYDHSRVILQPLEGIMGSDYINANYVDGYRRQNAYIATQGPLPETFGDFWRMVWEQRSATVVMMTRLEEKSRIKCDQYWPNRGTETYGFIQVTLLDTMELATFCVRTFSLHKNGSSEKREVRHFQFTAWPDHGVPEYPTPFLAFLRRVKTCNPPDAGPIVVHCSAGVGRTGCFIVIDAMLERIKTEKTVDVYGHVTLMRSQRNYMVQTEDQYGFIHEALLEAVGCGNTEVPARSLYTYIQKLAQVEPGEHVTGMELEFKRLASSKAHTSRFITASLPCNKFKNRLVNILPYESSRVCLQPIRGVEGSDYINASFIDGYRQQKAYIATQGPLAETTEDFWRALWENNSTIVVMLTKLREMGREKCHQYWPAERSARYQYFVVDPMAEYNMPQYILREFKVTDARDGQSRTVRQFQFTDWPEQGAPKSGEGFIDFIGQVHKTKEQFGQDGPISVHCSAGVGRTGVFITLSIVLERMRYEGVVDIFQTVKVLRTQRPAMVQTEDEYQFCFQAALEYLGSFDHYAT

What was measured:
Assay in all cases: native gel or EMSA; csBN-MS complexome profiling (cryo-slicing blue native gel, 359 slices, quantitative MS) of CL-47-solubilised ER-enriched membrane fractions of adult mouse brain
[1] = molecular target: Neurexin-1-alpha (mouse (endogenous in mouse brain)) (UniProt Q9CS84)
[2] = molecular target: Receptor-type tyrosine-protein phosphatase D (mouse (endogenous in mouse brain)) (UniProt Q64487)
[3] = molecular target: Receptor-type tyrosine-protein phosphatase S (mouse (endogenous in mouse brain)) (UniProt B0V2N1)

Measured: binding

B1: Transmembrane protein 178A (protein, UniProt Q9CZ16 26-297)
chain: IFTDHWYETDPRRHKESCERSRAGADPPDQKNRLMPLSHLPLRDSPPLGRRLLPGGPGRSDPESWRSLLGLGGLDAECGRPLFATYSGLWRKCYFLGIDRDIDTLILKGIAQRCTAIKYHFSQPIRLRNIPFNLTKTIQQDEWHLLHLRRITAGFLGMAVAVLLCGCIVATVSFFWEESLTQHVAGLLFLMTGIFCTISLCTYAASVSYDLNRVPKLIYSLPHDVEHGYSWSIFCAWCSLGFIVAAGGLCIAYPFISRTKIAHLKSGRDSTV
binds: [1] | [2] | [3]
